From article PMC6198068, “Discovery of a Novel Nav1.7 Inhibitor From Cyriopagopus albostriatus Venom With Potent Analgesic Efficacy” (Frontiers in Pharmacology, 2018)

Test system: acetic acid-induced writhing in mice
Design: species or system ICR mice
Conditions: mouse, in vivo, ip
Protocol: The ICR mice (18–22 g) used in this study were purchased from the Experimental Animal Center of SLac-kinda (Changsha, China). The animals were maintained at 20–25°C and freely allowed to standard rodent chow and water ad libitum. Ethical approval for in vivo experiments in animals was approved by the Animal Care and Use Committee (ACUC) at the Hunan Province Animal Management Office (HPAMO).
The abdominal writhing responses were counted for 30 min continuously.

CN1CC[C@]23c4c5ccc(O)c4O[C@H]2[C@@H](O)C=C[C@H]3[C@H]1C5 [morphine, reference compound]
writhing numbers: 11 ± 3.7
